{"sequences": {"note": "Chains of the proteins cited; added tags and fusions are not shown.", "UniProt P33535, whole entry, looked up": "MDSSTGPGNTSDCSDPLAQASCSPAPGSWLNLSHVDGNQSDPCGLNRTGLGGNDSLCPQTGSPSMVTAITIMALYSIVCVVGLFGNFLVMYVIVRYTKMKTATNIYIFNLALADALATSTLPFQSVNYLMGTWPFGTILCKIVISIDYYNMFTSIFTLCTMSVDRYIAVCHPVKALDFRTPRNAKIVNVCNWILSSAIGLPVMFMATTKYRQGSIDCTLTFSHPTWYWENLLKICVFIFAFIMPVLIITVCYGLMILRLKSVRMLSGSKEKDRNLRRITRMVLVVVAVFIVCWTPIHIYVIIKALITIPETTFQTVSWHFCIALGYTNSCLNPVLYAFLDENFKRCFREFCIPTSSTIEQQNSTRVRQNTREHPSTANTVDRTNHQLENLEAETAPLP"}, "source": "paper PMC5472181", "about": "(Journal of Molecular Biology, 2017)", "key": {"HA-tagged rat MOPr": {"target": "T1, HA-tagged rat MOPr (Rattus norvegicus, UniProt P33535)", "T1 construct": "gene Oprm1", "assay": "cell-based"}, "[1]": {"target": "T2, rat MOPr-yellow fluorescent protein (YFP) (Rattus norvegicus, UniProt P33535)", "T2 construct": "gene Oprm1"}}, "data": [{"compound": "CO[C@]12CC[C@@]3(C[C@@H]1[C@](C)(O)C(C)(C)C)[C@H]1Cc4ccc(O)c5c4[C@@]3(CCN1CC1CC1)[C@H]2O5", "note": "[buprenorphine]", "values": [{"measurement": "EC50", "setting": "HA-tagged rat MOPr", "value": "283 ± 232", "unit": "nM"}, {"measurement": "EC50", "setting": "[1]", "value": "~ 100 nM"}]}]}
